This is one part of the list. The data scatter; read single values as rough.
compound: ClCC(=O)N[C@@H]1CCCc2ccccc12; test: log2 mean competition ratio of IA-DTB cysteine labelling (DMSO/compound) (log2 ratio); higher = stronger cysteine engagement by compound; conditions: 50 µM; treatment time: 4 h; cell line lysate: HEK293T
Procedure: (§1)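 IA-DTB competitive cysteine chemoproteomics in HEK293T RIPA lysate. Lysates were treated with compound 29 or 30 at 50 or 200 µM for 4 h, then IA-DTB (500 µM, 1 h), trypsin-digested, NeutrAvidin-enriched and analysed by diaPASEF. Competition ratio = intensity DMSO / intensity compound (n=4 treated, n=64 DMSO); binding: mean log2 CR ≥ 1 and p ≤ 0.05 plus QC filters. Target is the cysteine site.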

Amino acid sequences for entries named in this document (tags omitted). A change or cut given only in a name is not applied to a line headed by its entry.
UniProt P23142: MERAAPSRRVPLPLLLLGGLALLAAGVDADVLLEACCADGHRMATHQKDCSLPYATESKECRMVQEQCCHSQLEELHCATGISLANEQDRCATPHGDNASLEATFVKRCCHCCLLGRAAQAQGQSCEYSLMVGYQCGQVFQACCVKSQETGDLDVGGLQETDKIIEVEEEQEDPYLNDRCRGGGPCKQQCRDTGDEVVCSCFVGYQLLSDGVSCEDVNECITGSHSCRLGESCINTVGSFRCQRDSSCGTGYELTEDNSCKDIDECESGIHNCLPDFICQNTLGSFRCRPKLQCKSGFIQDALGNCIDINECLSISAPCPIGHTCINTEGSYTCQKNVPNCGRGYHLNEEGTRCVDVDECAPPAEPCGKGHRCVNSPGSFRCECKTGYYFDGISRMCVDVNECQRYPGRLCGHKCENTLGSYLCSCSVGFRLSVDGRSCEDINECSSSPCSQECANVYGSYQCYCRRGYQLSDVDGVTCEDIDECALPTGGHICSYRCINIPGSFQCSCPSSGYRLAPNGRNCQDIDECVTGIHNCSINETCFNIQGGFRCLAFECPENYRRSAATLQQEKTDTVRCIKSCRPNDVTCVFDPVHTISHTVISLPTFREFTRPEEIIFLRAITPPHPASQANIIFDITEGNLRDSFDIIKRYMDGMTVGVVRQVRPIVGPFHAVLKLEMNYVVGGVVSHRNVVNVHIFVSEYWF
UniProt Q96ME1: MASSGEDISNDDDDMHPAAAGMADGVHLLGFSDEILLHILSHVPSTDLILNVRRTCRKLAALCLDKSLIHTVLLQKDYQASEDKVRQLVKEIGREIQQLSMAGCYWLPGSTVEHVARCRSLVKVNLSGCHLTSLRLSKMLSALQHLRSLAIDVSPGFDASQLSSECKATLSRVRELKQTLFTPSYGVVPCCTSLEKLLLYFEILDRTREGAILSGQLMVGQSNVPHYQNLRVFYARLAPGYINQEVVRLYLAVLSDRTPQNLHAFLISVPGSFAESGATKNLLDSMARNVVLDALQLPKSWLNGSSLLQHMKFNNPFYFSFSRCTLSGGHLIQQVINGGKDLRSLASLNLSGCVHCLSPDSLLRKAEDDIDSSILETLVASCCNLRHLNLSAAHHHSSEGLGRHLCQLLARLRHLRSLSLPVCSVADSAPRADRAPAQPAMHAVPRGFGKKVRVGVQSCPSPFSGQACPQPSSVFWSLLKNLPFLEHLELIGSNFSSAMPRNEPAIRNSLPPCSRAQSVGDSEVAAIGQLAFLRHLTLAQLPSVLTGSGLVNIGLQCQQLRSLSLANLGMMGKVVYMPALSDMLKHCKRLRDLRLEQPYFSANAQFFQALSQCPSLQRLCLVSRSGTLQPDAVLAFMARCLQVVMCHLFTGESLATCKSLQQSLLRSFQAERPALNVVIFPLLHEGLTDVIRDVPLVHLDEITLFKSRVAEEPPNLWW
UniProt P16591: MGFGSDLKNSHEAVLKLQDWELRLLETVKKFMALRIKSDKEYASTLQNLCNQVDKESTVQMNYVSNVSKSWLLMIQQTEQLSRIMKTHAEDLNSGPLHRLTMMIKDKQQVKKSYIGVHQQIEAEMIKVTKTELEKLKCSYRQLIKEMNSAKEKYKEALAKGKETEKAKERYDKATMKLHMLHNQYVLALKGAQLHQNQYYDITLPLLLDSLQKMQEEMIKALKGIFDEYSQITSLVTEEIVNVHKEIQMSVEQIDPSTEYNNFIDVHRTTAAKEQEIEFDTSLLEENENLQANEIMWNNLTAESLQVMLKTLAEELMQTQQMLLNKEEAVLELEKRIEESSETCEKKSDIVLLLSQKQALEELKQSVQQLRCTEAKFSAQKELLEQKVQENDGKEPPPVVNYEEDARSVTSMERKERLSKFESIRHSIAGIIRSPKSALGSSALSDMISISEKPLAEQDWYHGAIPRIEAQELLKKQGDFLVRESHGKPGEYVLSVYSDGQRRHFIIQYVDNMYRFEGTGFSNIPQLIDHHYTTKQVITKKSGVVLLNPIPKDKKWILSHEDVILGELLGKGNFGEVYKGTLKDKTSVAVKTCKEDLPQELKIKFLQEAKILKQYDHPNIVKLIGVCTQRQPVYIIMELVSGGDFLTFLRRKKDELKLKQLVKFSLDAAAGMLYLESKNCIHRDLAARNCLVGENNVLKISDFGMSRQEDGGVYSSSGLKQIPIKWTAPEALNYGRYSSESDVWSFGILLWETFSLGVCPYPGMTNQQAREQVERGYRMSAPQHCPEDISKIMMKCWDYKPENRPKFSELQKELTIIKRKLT
UniProt Q5XUX1: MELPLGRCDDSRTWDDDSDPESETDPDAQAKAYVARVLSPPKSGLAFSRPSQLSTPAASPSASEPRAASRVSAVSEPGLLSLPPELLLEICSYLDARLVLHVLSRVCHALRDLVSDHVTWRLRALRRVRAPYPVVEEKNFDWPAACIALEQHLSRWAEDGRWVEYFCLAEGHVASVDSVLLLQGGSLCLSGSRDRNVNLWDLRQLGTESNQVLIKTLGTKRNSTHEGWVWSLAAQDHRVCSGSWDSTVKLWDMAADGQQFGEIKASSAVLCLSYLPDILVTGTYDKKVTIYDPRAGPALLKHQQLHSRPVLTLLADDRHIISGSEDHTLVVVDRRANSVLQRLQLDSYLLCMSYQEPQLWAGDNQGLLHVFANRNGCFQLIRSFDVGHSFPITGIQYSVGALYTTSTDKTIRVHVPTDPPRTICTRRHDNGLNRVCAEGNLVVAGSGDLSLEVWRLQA
UniProt Q14318: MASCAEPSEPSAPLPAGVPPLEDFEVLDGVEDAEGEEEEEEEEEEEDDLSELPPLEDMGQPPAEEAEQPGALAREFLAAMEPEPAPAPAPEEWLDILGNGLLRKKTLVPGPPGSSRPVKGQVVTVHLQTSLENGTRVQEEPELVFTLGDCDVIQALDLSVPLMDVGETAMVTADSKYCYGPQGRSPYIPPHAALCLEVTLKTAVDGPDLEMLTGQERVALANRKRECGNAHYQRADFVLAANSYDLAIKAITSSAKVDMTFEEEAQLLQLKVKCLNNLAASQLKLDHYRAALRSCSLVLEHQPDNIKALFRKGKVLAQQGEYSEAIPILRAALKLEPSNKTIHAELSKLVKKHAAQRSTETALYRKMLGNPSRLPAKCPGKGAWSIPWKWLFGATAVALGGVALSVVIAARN
UniProt Q8TB52: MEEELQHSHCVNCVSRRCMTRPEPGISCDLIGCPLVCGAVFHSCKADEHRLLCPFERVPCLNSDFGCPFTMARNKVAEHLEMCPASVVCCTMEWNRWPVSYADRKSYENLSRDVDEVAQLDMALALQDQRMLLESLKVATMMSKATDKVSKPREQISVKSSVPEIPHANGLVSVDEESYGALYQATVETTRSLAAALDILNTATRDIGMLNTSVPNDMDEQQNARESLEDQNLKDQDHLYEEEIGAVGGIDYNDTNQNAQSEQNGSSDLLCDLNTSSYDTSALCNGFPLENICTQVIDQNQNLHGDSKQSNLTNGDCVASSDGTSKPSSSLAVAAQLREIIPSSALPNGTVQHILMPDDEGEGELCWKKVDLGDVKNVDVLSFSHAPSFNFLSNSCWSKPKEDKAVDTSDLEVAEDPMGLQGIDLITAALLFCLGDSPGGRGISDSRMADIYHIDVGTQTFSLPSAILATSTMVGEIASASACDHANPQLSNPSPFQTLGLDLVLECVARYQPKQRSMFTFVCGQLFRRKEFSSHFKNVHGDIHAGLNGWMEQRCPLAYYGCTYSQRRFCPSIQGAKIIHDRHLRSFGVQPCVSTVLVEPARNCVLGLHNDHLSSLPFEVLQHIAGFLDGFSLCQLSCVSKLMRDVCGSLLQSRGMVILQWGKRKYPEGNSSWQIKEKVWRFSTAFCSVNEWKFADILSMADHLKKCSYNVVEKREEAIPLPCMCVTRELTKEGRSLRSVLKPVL
UniProt P04406: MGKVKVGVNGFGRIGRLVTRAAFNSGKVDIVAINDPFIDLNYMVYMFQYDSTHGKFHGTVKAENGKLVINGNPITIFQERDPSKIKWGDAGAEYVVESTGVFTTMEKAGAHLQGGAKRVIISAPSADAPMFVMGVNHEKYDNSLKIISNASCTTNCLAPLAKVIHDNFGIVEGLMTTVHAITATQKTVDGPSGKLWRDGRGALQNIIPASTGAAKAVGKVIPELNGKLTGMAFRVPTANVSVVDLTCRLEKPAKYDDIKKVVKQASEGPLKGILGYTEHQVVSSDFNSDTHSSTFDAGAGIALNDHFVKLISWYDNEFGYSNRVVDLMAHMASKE
UniProt Q8N0W3: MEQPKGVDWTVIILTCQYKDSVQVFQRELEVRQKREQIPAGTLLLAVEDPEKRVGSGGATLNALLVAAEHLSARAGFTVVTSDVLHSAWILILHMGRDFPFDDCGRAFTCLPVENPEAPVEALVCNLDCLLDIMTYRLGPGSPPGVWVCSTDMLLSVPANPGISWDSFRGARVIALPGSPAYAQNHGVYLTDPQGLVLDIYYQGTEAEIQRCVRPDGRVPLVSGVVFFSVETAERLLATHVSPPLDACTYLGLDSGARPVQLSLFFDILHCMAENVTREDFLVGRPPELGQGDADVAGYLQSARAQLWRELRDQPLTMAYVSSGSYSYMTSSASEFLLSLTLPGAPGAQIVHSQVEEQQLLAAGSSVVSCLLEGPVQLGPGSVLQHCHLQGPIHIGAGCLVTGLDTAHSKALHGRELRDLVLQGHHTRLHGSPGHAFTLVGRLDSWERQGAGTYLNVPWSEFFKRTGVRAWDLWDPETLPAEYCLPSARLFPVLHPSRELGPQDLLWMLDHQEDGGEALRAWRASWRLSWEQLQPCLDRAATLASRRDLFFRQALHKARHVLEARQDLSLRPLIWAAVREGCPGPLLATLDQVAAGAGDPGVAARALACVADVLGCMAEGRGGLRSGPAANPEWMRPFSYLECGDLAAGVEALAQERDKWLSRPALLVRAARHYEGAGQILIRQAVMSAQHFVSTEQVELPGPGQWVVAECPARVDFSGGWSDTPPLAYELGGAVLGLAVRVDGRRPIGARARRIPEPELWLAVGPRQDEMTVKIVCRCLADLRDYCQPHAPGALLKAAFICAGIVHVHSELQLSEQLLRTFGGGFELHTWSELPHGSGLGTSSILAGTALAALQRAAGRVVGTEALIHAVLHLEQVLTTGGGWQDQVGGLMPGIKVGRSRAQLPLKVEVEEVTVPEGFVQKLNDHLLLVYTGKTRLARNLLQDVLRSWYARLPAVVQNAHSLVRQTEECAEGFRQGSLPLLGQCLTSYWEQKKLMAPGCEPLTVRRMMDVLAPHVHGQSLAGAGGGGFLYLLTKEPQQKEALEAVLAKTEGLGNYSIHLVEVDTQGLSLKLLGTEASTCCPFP
UniProt Q53R41: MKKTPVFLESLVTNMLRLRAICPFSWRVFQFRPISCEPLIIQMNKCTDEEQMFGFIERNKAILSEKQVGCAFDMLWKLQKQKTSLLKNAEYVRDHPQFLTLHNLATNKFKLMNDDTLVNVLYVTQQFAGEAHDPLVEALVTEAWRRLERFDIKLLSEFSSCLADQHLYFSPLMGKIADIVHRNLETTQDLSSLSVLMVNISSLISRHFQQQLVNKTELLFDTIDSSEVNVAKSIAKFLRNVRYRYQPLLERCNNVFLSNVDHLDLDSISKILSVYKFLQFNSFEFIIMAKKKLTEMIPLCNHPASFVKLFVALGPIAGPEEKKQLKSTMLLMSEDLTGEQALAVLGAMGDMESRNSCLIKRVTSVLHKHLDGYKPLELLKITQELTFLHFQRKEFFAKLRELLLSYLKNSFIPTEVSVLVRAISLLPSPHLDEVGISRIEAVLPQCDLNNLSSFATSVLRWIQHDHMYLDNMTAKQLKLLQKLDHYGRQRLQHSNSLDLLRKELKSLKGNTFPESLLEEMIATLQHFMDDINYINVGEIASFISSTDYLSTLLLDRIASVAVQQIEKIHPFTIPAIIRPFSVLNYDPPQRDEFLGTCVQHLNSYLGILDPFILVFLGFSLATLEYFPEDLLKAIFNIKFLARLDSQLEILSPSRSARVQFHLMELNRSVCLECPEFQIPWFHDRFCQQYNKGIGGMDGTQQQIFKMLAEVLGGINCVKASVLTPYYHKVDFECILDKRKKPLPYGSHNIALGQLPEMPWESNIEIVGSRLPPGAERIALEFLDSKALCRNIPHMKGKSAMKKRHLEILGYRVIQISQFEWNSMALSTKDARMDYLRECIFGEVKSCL
UniProt Q13642: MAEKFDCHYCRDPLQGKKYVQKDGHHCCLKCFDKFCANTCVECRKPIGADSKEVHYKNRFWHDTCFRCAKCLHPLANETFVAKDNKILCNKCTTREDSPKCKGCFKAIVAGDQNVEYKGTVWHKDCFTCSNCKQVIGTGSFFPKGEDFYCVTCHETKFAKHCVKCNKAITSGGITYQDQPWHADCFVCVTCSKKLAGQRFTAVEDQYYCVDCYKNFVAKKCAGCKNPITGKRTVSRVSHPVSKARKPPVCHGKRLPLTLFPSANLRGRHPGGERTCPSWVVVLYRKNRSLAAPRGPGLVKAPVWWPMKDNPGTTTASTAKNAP
UniProt O43716: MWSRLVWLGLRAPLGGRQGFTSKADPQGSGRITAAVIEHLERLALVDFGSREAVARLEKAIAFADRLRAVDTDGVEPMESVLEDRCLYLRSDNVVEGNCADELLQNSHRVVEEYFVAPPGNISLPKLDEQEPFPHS

| Target | log2 mean competition ratio |
| --- | --- |
| FLNA C1157 | -0.253 |
| FBLN1 C373 (UniProt P23142) | 0.08 |
| GALK1 C243 (UniProt P51570) | -0.363 |
| GARRE1 C573 | -0.104 |
| FBXL18 C324 (UniProt Q96ME1) | 0.068 |
| FBXO38 C401 (UniProt Q6PIJ6) | -0.151 |
| FER C593 (UniProt P16591) | -0.132 |
| FER C690 (UniProt P16591) | 0.0841 |
| FTSJ1 C278 (UniProt Q9UET6) | 0.146 |
| FNDC3A C560 (UniProt Q9Y2H6) | -0.524 |
| FLNA C1402 | 0.224 |
| GAR1 C88 (UniProt Q9NY12) | -0.248 |
| FBXL20 C101 (UniProt Q96IG2) | 0.2 |
| FOXC1 C233 | -0.351 |
| FBXW9 C240 (UniProt Q5XUX1) | 0.177 |
| FOXM1 C56 | 0.113 |
| FKBP8 C227 (UniProt Q14318) | 0.218 |
| FBXO30 C592 (UniProt Q8TB52) | -0.0212 |
| FASN C1992 | -0.159 |

| Target | log2 mean competition ratio |
| --- | --- |
| FIG4 C842 (UniProt Q92562) | -0.132 |
| GAMT C220 (UniProt Q14353) | -0.0752 |
| FBXL19 C246 (UniProt Q6PCT2) | 0.0783 |
| FNDC3A C211 (UniProt Q9Y2H6) | 0.247 |
| FHIP1A C270 | 0.094 |
| GATB C228 (UniProt O75879) | -0.362 |
| GAPDH C247 (UniProt P04406) | -0.244 |
| FCSK C970 (UniProt Q8N0W3) | -0.308 |
| FRYL C1177 (UniProt O94915) | 0.16 |
| FASTKD1 C686 (UniProt Q53R41) | 0.389 |
| FASN C1881 | 0.555 |
| FHL1 C65 (UniProt Q13642) | 0.36 |
| FNTA C341 | 0.00746 |
| GABPB1 C331 (UniProt Q06547) | -0.434 |
| FLNA C2107 | 0.734 |
| GATC C99 (UniProt O43716) | -0.238 |
| FXYD6 C63 | 0.473 |
| FYCO1 C848 (UniProt Q9BQS8) | -0.173 |

same assay, conditions: 200 µM; treatment time: 4 h; cell line lysate: HEK293T

| Target | log2 mean competition ratio |
| --- | --- |
| FLNA C1157 | -0.447 |
| FBLN1 C373 (UniProt P23142) | 0.148 |
| GALK1 C243 (UniProt P51570) | 0.383 |
| GARRE1 C573 | -0.142 |
| FBXL18 C324 (UniProt Q96ME1) | 0.0782 |
| FBXO38 C401 (UniProt Q6PIJ6) | -0.192 |
| FER C593 (UniProt P16591) | 0.142 |
| FER C690 (UniProt P16591) | 0.113 |
| FTSJ1 C278 (UniProt Q9UET6) | 0.00118 |
| FNDC3A C560 (UniProt Q9Y2H6) | 0.0767 |
| FLNA C1402 | -0.00725 |
| GAR1 C88 (UniProt Q9NY12) | 0.323 |
| FBXL20 C101 (UniProt Q96IG2) | 0.339 |
| FOXC1 C233 | -0.284 |
| FBXW9 C240 (UniProt Q5XUX1) | -0.0307 |
| FOXM1 C56 | 0.681 |
| FKBP8 C227 (UniProt Q14318) | -0.00779 |
| FBXO30 C592 (UniProt Q8TB52) | 0.169 |
| FASN C1992 | -0.103 |

| Target | log2 mean competition ratio |
| --- | --- |
| FIG4 C842 (UniProt Q92562) | 0.133 |
| GAMT C220 (UniProt Q14353) | -0.162 |
| FBXL19 C246 (UniProt Q6PCT2) | 0.271 |
| FNDC3A C211 (UniProt Q9Y2H6) | 0.113 |
| FHIP1A C270 | 0.484 |
| GATB C228 (UniProt O75879) | 0.211 |
| GAPDH C247 (UniProt P04406) | 0.0255 |
| FCSK C970 (UniProt Q8N0W3) | 0.208 |
| FRYL C1177 (UniProt O94915) | 0.079 |
| FASTKD1 C686 (UniProt Q53R41) | 0.413 |
| FASN C1881 | -0.643 |
| FHL1 C65 (UniProt Q13642) | 0.237 |
| FNTA C341 | -0.0281 |
| GABPB1 C331 (UniProt Q06547) | -0.138 |
| FLNA C2107 | -0.000867 |
| GATC C99 (UniProt O43716) | 0.0199 |
| FXYD6 C63 | -0.116 |
| FYCO1 C848 (UniProt Q9BQS8) | 0.888 |

compound: ClCC(=O)N[C@H]1CCCc2ccccc12; test: as above; conditions: 50 µM; treatment time: 4 h; cell line lysate: HEK293T
Procedure: as §1

| Target | log2 mean competition ratio |
| --- | --- |
| FLNA C1157 | -0.687 |
| FBLN1 C373 (UniProt P23142) | -0.149 |
| GALK1 C243 (UniProt P51570) | 0.308 |
| GARRE1 C573 | 0.261 |
| FBXL18 C324 (UniProt Q96ME1) | -0.434 |
| FBXO38 C401 (UniProt Q6PIJ6) | 0.224 |
| FER C593 (UniProt P16591) | -0.481 |
| FER C690 (UniProt P16591) | -0.227 |
| FTSJ1 C278 (UniProt Q9UET6) | 0.407 |
| FNDC3A C560 (UniProt Q9Y2H6) | -0.903 |
| FLNA C1402 | 0.297 |
| GAR1 C88 (UniProt Q9NY12) | -0.26 |
| FBXL20 C101 (UniProt Q96IG2) | 0.0134 |
| FOXC1 C233 | -0.365 |
| FBXW9 C240 (UniProt Q5XUX1) | -0.236 |
| FOXM1 C56 | 0.015 |
| FKBP8 C227 (UniProt Q14318) | 0.149 |
| FBXO30 C592 (UniProt Q8TB52) | 0.127 |
| FASN C1992 | -0.255 |

| Target | log2 mean competition ratio |
| --- | --- |
| FIG4 C842 (UniProt Q92562) | 0.045 |
| GAMT C220 (UniProt Q14353) | 0.383 |
| FBXL19 C246 (UniProt Q6PCT2) | -0.0248 |
| FNDC3A C211 (UniProt Q9Y2H6) | -0.448 |
| FHIP1A C270 | -0.0347 |
| GATB C228 (UniProt O75879) | -0.597 |
| GAPDH C247 (UniProt P04406) | -0.442 |
| FCSK C970 (UniProt Q8N0W3) | -0.127 |
| FRYL C1177 (UniProt O94915) | -0.176 |
| FASTKD1 C686 (UniProt Q53R41) | 0.364 |
| FASN C1881 | 0.389 |
| FHL1 C65 (UniProt Q13642) | 0.494 |
| FNTA C341 | -0.39 |
| GABPB1 C331 (UniProt Q06547) | -0.211 |
| FLNA C2107 | 0.508 |
| GATC C99 (UniProt O43716) | -0.124 |
| FXYD6 C63 | 0.559 |
| FYCO1 C848 (UniProt Q9BQS8) | -0.362 |

— the supplement of paper PMC11732987, “Enantioselective OTUD7B fragment discovery through chemoproteomics screening and high-throughput optimisation” (Communications Chemistry, 2025)
